Assay results published in patent US20220160798A1 (priority 2019, published 2022).

Key:
[1] = test system: glial fibrillary acidic protein (GFAP); assay: Antibody fluorescent staining of brain hippocampus: GFAP (astrocytes); type: in vivo, mice; settings: dentate gyrus (DG)
CREB = assay: Antibody fluorescent staining of brain hippocampus: CREB; type: in vivo, mice; settings: reduction vs control group

## COc1cc2c(cc1OC)C(=O)C(CC1CCN(Cc3ccccc3)CC1)C2 (centres unmarked) [donepezil]
[1]
  GFAP-positive response / activated astrocytes: activated astrocytes were reduced
CREB
  activity of CREB (fluorescent staining): slight
